According to patent publication US20030175730, “Multivalent RNA aptamers and their expression in multicellular organisms” (published 2003):
For some assays here: A weaker result is weaker than the reference pair of the same experiment. Protein sequences can lack the tags named with them.

Key:
[1] = molecular target: T1, B52 endogenous/overexpressed (Drosophila melanogaster) (UniProt P26686); assay: activity in cells; conditions: B52 recruited to transgene puff; suppresses B52 overexpression phenotypes in flies; protein in cells; dose not given here
T1 sequence (looked up, limits assumed): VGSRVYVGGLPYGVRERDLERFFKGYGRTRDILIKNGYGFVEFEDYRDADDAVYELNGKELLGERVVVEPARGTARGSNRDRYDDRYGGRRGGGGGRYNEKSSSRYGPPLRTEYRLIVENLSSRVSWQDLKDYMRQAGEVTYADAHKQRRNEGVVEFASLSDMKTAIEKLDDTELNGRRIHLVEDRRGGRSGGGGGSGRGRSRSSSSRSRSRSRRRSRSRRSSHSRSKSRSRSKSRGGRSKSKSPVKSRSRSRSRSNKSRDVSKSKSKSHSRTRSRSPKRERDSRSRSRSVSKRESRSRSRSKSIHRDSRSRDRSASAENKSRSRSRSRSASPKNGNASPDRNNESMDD

[2] = molecular target: T2, B52 (SRp55) full length (Drosophila melanogaster) (UniProt P26686); assay: inhibition of the protein; conditions: inhibits B52-dependent ftz pre-mRNA splicing in S100 extract; restored by extra B52; purified recombinant protein; protein details: baculovirus/Sf9 expressed, SR protein purification; dose not given here
T2 sequence (looked up): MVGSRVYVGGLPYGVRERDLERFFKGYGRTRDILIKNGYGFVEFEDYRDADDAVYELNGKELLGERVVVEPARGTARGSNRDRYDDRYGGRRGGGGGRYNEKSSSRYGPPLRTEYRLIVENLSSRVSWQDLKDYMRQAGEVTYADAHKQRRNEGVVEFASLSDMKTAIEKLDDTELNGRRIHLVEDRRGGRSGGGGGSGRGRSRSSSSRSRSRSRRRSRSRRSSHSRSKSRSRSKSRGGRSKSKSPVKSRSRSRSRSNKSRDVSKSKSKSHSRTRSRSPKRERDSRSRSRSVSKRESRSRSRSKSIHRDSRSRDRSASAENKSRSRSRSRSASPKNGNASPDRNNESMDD

[3] = molecular target: T2, B52 (SRp55) full length (Drosophila melanogaster); assay: EMSA; conditions: purified recombinant protein, protein details: baculovirus/Sf9 expressed, SR protein purification, label: 32P-UTP

GCGGCCGCCUCCGCGGCCGCCUGAUGAGUCCGUGAGGACGAAACAUGCAUGUCGAGAGUACGAUCAACCAGGCGACAGUACUCUCGACGAUCAACCAGGCGACAGUGGCUGGUCAACCAGGCGACCGCCACUGCAGGGUAACGGUCAACCAGGCGACCGUUACCCGGACGGUCAACCAGGCGACCGUUGACUUCGGUCAGUCGAGAUGCAUGUC [mature pentavalent BBS(5) aptamer]
functional effect of the aptamer [1]: active
functional effect of the aptamer [2]: active

GGACUGUCAACCAGGCGACAGU [bbs-II/5'Stem]
binding result ([3]; weak binder, one conserved flanking G, variant of bbs-II): binds more weakly

GGAUGUCAACCAGGCGACAUCC [TransBBS-I]
binding result ([3]; poor binding, conserved flanking Gs replaced, variant of BBS-I): binds more weakly

GGCAUGAAUCAACCAGGCGACGCAUGCC [FlipBBS-II]
binding result ([3]; poor binding, conserved flanking Gs replaced, variant of BBS-II): binds more weakly
